Source: the supplement of paper PMC8104966
The list shows a part of the results. Repeats in this data set agree poorly, so a single value says little.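 U2OS cells expressing ACE2 were combined with U2OS cells expressing full-length spike, and imaging quantified fusion as the fraction of nuclei displaying both cell types' fluorescent markers. Non-toxic compounds with a fusion z-score under -3, i.e., over three standard deviations below the plate's DMSO wells, are called inhibitory hits.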

System: U2OS ACE2 x SARS-CoV-2 spike co-culture
Test: cell-cell fusion (fraction fused) z-score vs plate DMSO control; higher = more fusion
Conditions: 30 µM; 5 h; toxicity class: non-toxic, passed QC

Q: CNC(C)[C@@H]1CC[C@@H](N)[C@@H](OC2[C@@H](N)C[C@@H](N)[C@H](OC3OC[C@](C)(O)[C@H](NC)[C@H]3O)[C@H]2O)O1 (some centres undefined) was tested. Which “cell-cell fusion (z-score)” value did it give?
A: inactive: 2.31

Q: Cn1c(=O)[nH]c2ncn(C)c2c1=O [1,7-Dimethylxanthine] was tested. Which “cell-cell fusion (z-score)” value did it give?
A: inactive: 2.9

Q: Which “cell-cell fusion (z-score)” value does the source give for Cn1c(=O)[nH]c2ncn(C)c2c1=O here?
A: inactive: 0.8

Q: Which “cell-cell fusion (z-score)” value does the source give for NC(=O)c1ncn(C2O[C@H](CO)[C@@H](O)[C@H]2O)c1N (some centres undefined) here?
A: inactive: 2.03

Q: With COc1cc([C@@H]2c3cc4c(cc3[C@@H](O[C@@H]3O[C@@H]5CO[C@@H](C)O[C@@]5(O)C[C@H]3O)[C@H]3COC(=O)[C@H]23)OCO4)cc(OC)c1O [Etoposide] as the molecule, how does the “cell-cell fusion (z-score)” value read?
A: inactive: 2.62

Q: How did the “cell-cell fusion (z-score)” value turn out when NNc1nncc2ccccc12 was run?
A: inactive: 0.682

Q: How did the “cell-cell fusion (z-score)” value turn out when O=C(NCCN1CCOCC1)c1ccc(Cl)cc1 [Moclobemide] was run?
A: inactive: 3.08

Q: With COc1ccc(C2CNC(=O)C2)cc1OC1CCCC1 (centres undefined) as the molecule, how does the “cell-cell fusion (z-score)” value read?
A: inactive: 3.13

Q: With CC1(C)C(C=C(Cl)Cl)C1C(=O)OCc1cccc(Oc2ccccc2)c1 (centres undefined) as the molecule, how does the “cell-cell fusion (z-score)” value read?
A: inactive: 3.15

Q: With CN(C)CCC[C@@]1(c2ccc(F)cc2)OCc2cc(C#N)ccc21.O=C(O)C(=O)O [Escitalopram Oxalate] as the molecule, how does the “cell-cell fusion (z-score)” value read?
A: inactive: -1.14

Q: For CCN(CC)C(=S)SSC(=S)N(CC)CC [Disulfiram], which “cell-cell fusion (z-score)” value is on record?
A: inactive: 2.86

Q: Which “cell-cell fusion (z-score)” value does the source give for CCN(CC)C(=S)SSC(=S)N(CC)CC here?
A: inactive: 0.92

Q: For CCN(CC)C(=S)SSC(=S)N(CC)CC [Tetraethylthiuram disulfide], which “cell-cell fusion (z-score)” value is on record?
A: inactive: 0.823

Q: How did the “cell-cell fusion (z-score)” value turn out when C[N+]1(C)C2CC(OC(=O)[C@H](CO)c3ccccc3)CC1C1OC12.O=[N+]([O-])[O-] (single isomer, unassigned; (-)) [(-)-Scopolamine methyl nitrate] was run?
A: inactive: 2.11

Q: With CC12CCC(=O)C=C1CCC1C2[C@@H](O)CC2(C)C1CC[C@]2(O)C(=O)COP(=O)([O-])[O-].CC[NH+](CC)CC.CC[NH+](CC)CC (some centres undefined) as the molecule, how does the “cell-cell fusion (z-score)” value read?
A: inactive: 0.747

Q: O=S(=O)([O-])Oc1ccc(C(c2ccc(OS(=O)(=O)[O-])cc2)c2ccccn2)cc1.[Na+].[Na+] [Sodium Picosulfate] was tested. Which “cell-cell fusion (z-score)” value did it give?
A: inactive: 2.92

Q: OCc1ccccc1O was tested. Which “cell-cell fusion (z-score)” value did it give?
A: inactive: 4.68

Q: COc1cc(O)cc(OC)c1OC was tested. Which “cell-cell fusion (z-score)” value did it give?
A: inactive: 0.528

Q: How did the “cell-cell fusion (z-score)” value turn out when COc1ccc2c(C)cc(=O)oc2c1 was run?
A: inactive: 1.85

Q: Which “cell-cell fusion (z-score)” value does the source give for NCCCC(O)(P(=O)(O)O)P(=O)(O)O.O.O.O.[Na+] here?
A: inactive: 2.22

Q: COc1cc(O)c(C)c(O)c1 was tested. Which “cell-cell fusion (z-score)” value did it give?
A: inactive: 2.32

Q: With O=C(O)/C=C/c1c[nH]cn1 [4-Imidazoleacrylic acid] as the molecule, how does the “cell-cell fusion (z-score)” value read?
A: inactive: 1.1

Q: CN(C)CCC(c1ccccc1)c1ccccn1.O=C(O)/C=C\C(=O)O (centres undefined) [Pheniramine maleate] was tested. Which “cell-cell fusion (z-score)” value did it give?
A: inactive: 2.84

Q: CC1=C(/C=C/C(C)=C/C=C/C(C)=C/CO)C(C)(C)CCC1 [Retinol] was tested. Which “cell-cell fusion (z-score)” value did it give?
A: inactive: 3.75

Q: For Cc1nc(C)c(Cl)c(O)c1Cl, which “cell-cell fusion (z-score)” value is on record?
A: inactive: 2.13

Q: How did the “cell-cell fusion (z-score)” value turn out when O=S(=O)([O-])CCCS(=O)(=O)[O-].[Na+].[Na+] was run?
A: inactive: 2.76

Q: Which “cell-cell fusion (z-score)” value does the source give for C[C@]12N[C@H](Cc3ccccc31)c1ccccc12.O=C(O)/C=C\C(=O)O [(+)-MK-801 hydrogen maleate] here?
A: inactive: 3.12

Q: For CC1(C)S[C@@H]2[C@H](NC(=O)[C@H](N)c3ccccc3)C(=O)N2[C@H]1C(=O)O.O.O.O [Ampicillin Trihydrate], which “cell-cell fusion (z-score)” value is on record?
A: inactive: 4.5

Q: CS(=O)(=O)c1ccc(C(=O)Nc2ccc(Cl)c(-c3ccccn3)c2)c(Cl)c1 [Vismodegib (GDC-0449)] was tested. Which “cell-cell fusion (z-score)” value did it give?
A: inactive: 1.84

Q: For O.O=P(O)(O)C(O)(Cn1ccnc1)P(=O)(O)O [Zoledronic acid monohydrate], which “cell-cell fusion (z-score)” value is on record?
A: inactive: 2.87

Q: For NC(=O)N1c2ccccc2C=Cc2ccccc21 [Carbamazepine], which “cell-cell fusion (z-score)” value is on record?
A: inactive: 1.86

Q: How did the “cell-cell fusion (z-score)” value turn out when Cc1ccc(C(C)C)c(O)c1C(=O)O was run?
A: inactive: 2

Q: How did the “cell-cell fusion (z-score)” value turn out when CCN(CC)CCOC(=O)c1ccc(N)cc1 [Procaine] was run?
A: inactive: 2.02

Q: For O=C(CCCCCCCC(=O)NCCO)NCCO, which “cell-cell fusion (z-score)” value is on record?
A: inactive: 3.2

Q: Which “cell-cell fusion (z-score)” value does the source give for O=C(O)[C@H]1NCCC[C@H]1C(=O)O (racemic) [(±)-cis-Piperidine-2,3-dicarboxylic acid] here?
A: inactive: 1.42

Q: NC1CCN(O)C1=O (racemic) was tested. Which “cell-cell fusion (z-score)” value did it give?
A: inactive: 1.53

Q: Which “cell-cell fusion (z-score)” value does the source give for Cc1c[nH]c(-c2cnc(NCCNc3ccc(C#N)cn3)nc2-c2ccc(Cl)cc2Cl)n1.Cl here?
A: inactive: 2.71

Q: Which “cell-cell fusion (z-score)” value does the source give for Cc1ccccc1C(OCCN(C)C)c1ccccc1.Cl (centres undefined) [Orphenadrine hydrochloride] here?
A: inactive: 3.41

Q: Which “cell-cell fusion (z-score)” value does the source give for C=C[C@H]1C[N@@]2CC[C@H]1C[C@@H]2[C@H](O)c1ccnc2ccccc12 here?
A: inactive: 2.93

Q: How did the “cell-cell fusion (z-score)” value turn out when CC(=O)O[C@H]1C[C@@H]2CC[C@@H]3[C@H](CC[C@@]4(C)[C@H]3C[C@H]([N+]3(C)CCCCC3)[C@@H]4OC(C)=O)[C@@]2(C)C[C@@H]1N1CCCCC1.[Br-] [Vecuronium bromide] was run?
A: inactive: 3.38

Q: Which “cell-cell fusion (z-score)” value does the source give for CC1(C)CCC[C@]2(C)[C@H]3CC(=O)O[C@]3(C)CC[C@@H]12 here?
A: inactive: 1.5

Q: C1CNCCN1.C[C@]12CC[C@@H]3c4ccc(OS(=O)(=O)O)cc4CC[C@H]3[C@@H]1CCC2=O [Estropipate] was tested. Which “cell-cell fusion (z-score)” value did it give?
A: inactive: 2.17

Q: Clc1ccc(CCC(Cn2ccnc2)Sc2c(Cl)cccc2Cl)cc1.O=[N+]([O-])O (centres undefined) [Butoconazole nitrate] was tested. Which “cell-cell fusion (z-score)” value did it give?
A: inactive: -1.53

Q: For O.S=c1nc[nH]c2nc[nH]c12 [6-Mercaptopurine monohydrate], which “cell-cell fusion (z-score)” value is on record?
A: inactive: 2.31

Q: Which “cell-cell fusion (z-score)” value does the source give for CN(C)CCC=C1c2ccccc2C=Cc2ccccc21.Cl [Cyclobenzaprine hydrochloride] here?
A: inactive: 1.04

Q: S=c1ccss1 was tested. Which “cell-cell fusion (z-score)” value did it give?
A: inactive: 3.38

Q: With Nc1nc(N)nc(NC2CC2)n1 as the molecule, how does the “cell-cell fusion (z-score)” value read?
A: inactive: 1.28

Q: For C[C@H](CCC(=O)O)[C@H]1CCC2C3C(CC[C@@]21C)[C@@]1(C)CC[C@@H](O)C[C@H]1C[C@H]3O (some centres undefined), which “cell-cell fusion (z-score)” value is on record?
A: inactive: 3.03

Q: Which “cell-cell fusion (z-score)” value does the source give for Nc1nc2c(ncn2C2O[C@H](CO)[C@@H](O)[C@H]2O)c(=S)[nH]1 (some centres undefined) here?
A: inactive: 2.42
